Test results reported in the supplement of paper PMC12823440, “Inhibitors supercharge kinase turnover through native proteolytic circuits” (Nature, 2025).
Counter-ions that a name gives are not always drawn. The list shows a part of the results. The calls rarely recur for the same compound in another form.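 In K562 cells expressing nanoluciferase-fused kinases, luminescence was recorded at 4 h intervals between 2 and 18 h, normalized as percent of control with DMSO at 100% and a positive control at 0%. A significant (2 sigma) signal drop marks a time point as decreased. The authors' rule for a hit is not shown and takes in more than the number of time points.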

Chains of the proteins cited; added tags and fusions are not shown. Lines headed by an entry give the natural chain unless they say otherwise; changes in a name come on top.
UniProt P00519, whole entry: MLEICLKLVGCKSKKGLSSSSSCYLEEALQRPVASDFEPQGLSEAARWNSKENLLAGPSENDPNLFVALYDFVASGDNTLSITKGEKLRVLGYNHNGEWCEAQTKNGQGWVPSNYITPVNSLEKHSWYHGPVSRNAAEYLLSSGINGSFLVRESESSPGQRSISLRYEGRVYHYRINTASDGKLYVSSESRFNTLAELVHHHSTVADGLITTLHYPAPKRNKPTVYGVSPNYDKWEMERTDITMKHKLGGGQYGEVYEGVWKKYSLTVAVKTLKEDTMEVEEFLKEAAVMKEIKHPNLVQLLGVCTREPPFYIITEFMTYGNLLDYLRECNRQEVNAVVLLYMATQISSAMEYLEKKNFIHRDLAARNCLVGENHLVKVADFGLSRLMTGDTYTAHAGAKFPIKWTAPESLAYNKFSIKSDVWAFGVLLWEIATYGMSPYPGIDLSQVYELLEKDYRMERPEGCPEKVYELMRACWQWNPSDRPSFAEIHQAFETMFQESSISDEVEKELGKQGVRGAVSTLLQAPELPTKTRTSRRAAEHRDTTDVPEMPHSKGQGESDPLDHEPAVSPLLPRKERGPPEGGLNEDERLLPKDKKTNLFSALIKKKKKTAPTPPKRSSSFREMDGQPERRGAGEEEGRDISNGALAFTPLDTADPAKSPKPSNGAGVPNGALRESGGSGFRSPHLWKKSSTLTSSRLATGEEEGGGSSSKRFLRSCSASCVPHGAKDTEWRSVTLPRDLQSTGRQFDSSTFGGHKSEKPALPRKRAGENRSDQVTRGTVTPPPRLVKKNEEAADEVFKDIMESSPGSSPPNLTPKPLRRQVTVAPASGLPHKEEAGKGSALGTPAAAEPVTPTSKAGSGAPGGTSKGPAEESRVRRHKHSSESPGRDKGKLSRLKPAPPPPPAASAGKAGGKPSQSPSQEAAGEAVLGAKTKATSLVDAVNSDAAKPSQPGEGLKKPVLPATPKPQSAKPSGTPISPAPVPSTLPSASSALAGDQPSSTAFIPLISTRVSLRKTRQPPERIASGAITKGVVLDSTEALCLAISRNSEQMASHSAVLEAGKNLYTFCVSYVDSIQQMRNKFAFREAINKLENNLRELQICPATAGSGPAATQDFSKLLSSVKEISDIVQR
UniProt P31749: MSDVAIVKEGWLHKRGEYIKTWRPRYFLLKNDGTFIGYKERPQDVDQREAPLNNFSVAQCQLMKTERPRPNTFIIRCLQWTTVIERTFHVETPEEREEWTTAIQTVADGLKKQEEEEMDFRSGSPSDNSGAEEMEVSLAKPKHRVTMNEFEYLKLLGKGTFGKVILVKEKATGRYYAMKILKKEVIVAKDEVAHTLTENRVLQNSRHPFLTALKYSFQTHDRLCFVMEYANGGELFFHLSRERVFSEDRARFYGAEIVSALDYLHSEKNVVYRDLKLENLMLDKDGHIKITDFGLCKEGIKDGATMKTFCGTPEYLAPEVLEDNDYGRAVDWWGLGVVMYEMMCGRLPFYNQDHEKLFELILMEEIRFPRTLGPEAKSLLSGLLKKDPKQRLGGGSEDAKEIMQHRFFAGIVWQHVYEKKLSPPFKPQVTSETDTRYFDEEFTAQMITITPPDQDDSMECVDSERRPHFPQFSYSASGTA
UniProt Q9UM73: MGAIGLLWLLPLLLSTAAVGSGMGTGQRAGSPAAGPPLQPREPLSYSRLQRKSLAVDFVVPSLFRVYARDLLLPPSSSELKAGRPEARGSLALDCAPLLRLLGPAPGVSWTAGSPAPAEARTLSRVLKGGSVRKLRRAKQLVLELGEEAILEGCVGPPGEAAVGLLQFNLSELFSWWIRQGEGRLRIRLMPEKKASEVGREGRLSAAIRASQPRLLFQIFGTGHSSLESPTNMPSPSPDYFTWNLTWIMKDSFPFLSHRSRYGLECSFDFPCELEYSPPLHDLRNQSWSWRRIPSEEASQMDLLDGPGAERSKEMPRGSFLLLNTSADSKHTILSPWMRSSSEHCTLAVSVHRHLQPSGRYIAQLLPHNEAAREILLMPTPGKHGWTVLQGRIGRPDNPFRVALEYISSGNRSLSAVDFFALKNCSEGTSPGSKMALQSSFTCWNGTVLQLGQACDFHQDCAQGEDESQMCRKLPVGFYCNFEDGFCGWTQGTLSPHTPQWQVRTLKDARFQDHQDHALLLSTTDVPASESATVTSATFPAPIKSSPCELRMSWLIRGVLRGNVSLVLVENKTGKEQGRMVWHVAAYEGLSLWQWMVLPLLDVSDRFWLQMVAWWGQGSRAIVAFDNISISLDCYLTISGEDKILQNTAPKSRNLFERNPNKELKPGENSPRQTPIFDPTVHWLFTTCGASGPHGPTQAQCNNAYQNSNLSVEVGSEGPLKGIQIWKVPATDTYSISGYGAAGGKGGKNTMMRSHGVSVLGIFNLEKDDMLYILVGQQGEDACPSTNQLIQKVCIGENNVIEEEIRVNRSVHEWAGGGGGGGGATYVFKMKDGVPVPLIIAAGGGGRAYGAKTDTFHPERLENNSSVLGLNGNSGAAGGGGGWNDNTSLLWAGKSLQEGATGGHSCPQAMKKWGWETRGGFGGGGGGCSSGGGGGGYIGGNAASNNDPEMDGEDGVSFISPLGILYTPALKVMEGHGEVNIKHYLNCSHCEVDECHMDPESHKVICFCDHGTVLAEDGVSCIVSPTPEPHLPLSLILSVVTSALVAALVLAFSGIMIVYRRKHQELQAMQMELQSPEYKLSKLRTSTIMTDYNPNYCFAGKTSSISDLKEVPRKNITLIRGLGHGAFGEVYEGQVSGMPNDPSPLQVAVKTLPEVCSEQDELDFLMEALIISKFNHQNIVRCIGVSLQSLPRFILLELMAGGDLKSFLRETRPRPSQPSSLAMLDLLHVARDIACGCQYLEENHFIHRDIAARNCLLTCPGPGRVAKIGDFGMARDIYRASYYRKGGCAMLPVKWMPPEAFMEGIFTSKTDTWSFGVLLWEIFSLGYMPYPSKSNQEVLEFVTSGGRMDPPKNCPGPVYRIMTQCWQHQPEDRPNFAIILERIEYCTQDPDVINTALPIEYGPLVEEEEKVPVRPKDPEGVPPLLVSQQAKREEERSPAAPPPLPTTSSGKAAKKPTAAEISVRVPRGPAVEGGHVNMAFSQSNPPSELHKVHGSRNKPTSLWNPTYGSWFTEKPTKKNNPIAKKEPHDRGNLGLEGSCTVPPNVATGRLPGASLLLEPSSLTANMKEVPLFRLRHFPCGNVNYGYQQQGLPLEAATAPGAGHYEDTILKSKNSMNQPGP
UniProt P10398: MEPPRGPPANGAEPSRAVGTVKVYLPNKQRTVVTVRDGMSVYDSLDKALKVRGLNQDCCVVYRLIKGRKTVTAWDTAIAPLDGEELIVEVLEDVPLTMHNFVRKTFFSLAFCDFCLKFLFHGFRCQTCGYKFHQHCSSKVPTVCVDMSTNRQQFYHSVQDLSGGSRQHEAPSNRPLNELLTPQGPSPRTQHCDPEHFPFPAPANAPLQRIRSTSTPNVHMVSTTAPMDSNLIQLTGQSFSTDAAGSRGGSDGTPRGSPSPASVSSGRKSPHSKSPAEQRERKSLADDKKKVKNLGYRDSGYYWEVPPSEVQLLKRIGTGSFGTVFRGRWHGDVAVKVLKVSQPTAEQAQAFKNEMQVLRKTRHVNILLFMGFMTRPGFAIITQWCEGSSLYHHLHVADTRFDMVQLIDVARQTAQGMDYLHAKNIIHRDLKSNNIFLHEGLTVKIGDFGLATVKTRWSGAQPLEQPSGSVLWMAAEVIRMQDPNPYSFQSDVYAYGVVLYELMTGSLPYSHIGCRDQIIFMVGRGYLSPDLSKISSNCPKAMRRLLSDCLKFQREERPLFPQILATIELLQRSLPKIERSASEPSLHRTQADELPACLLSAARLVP
UniProt O14965: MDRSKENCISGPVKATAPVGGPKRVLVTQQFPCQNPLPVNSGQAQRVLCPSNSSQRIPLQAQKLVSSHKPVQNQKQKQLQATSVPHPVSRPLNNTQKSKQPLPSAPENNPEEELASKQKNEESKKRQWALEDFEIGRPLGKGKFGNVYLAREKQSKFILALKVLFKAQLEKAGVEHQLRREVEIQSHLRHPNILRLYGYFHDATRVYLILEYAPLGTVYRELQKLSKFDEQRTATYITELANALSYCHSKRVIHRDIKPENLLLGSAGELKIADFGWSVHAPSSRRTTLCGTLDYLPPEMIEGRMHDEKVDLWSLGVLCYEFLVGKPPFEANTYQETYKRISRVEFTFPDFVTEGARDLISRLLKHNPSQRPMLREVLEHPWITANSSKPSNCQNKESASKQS
UniProt Q9UQB9: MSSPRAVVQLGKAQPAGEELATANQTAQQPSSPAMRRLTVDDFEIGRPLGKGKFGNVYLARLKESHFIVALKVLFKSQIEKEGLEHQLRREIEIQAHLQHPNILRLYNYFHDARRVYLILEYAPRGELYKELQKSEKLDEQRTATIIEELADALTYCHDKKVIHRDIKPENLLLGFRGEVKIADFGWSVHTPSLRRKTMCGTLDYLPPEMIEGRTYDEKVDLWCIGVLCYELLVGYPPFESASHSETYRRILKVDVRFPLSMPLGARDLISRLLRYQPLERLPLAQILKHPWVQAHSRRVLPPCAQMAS
UniProt P51451: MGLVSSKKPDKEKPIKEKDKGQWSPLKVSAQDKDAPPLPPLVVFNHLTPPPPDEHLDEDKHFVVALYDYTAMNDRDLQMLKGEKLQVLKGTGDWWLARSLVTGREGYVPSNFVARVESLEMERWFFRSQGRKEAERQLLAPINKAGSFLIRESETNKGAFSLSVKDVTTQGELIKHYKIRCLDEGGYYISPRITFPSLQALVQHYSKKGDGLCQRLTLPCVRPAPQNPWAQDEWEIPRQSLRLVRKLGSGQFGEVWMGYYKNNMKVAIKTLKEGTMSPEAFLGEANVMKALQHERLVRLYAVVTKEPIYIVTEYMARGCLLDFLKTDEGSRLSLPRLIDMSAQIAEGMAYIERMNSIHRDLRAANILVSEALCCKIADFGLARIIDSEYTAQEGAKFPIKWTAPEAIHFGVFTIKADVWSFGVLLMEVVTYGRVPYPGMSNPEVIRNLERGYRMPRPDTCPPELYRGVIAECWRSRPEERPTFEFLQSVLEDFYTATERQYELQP
UniProt P51813: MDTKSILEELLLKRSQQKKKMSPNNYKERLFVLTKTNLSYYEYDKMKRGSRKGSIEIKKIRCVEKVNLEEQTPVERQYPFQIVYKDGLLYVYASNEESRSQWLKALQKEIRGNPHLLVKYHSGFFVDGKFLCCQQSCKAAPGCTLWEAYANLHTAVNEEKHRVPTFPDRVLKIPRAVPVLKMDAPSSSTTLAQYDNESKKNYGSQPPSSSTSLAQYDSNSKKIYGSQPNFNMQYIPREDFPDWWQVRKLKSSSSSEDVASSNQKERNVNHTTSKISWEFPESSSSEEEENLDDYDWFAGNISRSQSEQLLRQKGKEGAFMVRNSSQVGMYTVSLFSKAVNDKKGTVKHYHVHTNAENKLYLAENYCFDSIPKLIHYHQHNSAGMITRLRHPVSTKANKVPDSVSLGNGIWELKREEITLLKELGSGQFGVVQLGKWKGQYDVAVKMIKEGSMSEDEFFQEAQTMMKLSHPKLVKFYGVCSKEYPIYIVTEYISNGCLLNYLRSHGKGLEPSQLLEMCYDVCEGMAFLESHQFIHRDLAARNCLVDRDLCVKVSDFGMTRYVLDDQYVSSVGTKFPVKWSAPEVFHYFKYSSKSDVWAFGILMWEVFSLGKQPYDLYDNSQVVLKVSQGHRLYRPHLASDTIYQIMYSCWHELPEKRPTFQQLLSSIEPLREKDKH
UniProt P15056, whole entry, looked up: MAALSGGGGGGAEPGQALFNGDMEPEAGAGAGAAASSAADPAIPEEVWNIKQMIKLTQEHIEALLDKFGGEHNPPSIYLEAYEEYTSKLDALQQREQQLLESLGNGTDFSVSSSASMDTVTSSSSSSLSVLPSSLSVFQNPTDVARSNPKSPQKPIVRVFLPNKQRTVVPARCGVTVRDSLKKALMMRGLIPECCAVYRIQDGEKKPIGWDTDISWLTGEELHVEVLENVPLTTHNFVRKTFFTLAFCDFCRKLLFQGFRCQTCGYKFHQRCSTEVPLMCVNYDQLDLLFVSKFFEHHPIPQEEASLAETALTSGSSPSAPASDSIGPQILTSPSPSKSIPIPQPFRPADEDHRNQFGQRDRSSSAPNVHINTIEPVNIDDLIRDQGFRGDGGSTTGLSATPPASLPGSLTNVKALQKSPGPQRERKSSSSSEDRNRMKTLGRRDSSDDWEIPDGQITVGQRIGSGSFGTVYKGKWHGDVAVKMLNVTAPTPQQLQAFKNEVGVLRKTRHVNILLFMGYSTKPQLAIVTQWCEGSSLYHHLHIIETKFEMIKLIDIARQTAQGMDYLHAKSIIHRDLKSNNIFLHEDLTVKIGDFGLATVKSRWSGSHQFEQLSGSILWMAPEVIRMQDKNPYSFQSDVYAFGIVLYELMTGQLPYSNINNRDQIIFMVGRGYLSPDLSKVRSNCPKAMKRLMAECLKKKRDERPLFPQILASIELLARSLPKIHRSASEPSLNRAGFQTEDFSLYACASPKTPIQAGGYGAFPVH

Assays:
Experiment in all cases: kinase-Nluc reporter destabilization hit call (1 = scored as downregulated) (binary); higher = compound decreases kinase abundance
Settings in all cases: K562; 2-18 h
[1] = biological target: ABL1 (UniProt P00519)
[2] = biological target: AKT1 (UniProt P31749)
[3] = biological target: ALK (UniProt Q9UM73)
[4] = biological target: ARAF (UniProt P10398)
[5] = biological target: AURKA (UniProt O14965)
[6] = biological target: AURKB (UniProt Q96GD4)
[7] = biological target: AURKC (UniProt Q9UQB9)
[8] = biological target: BLK (UniProt P51451)
[9] = biological target: BMX (UniProt P51813)
[10] = biological target: BRAF (UniProt P15056)

Measured: kinase-Nluc reporter destabilization hit call

CNc1cc(Nc2cccn(-c3ccccn3)c2=O)nn2c(C(=O)N[C@@H]3C[C@@H]3F)cnc12 (2.5 µM)
inactive: [1] 0 | [2] 0 | [3] 0 | [4] 0 | [5] 0 | [6] 0 | [7] 0 | [8] 0 | [9] 0 | [10] 0

CC(C)N1CCN(c2ccc(Nc3ncc4cc5n(c4n3)C3(CCCCC3)CNC5=O)nc2)CC1 [Lerociclib (dihydrochloride)] (2 µM)
inactive: [1] 0 | [2] 0 | [3] 0 | [4] 0 | [5] 0 | [6] 0 | [7] 0 | [8] 0 | [9] 0 | [10] 0

C=CCc1ccc(O)c(-c2ccc(O)c(CC=C)c2)c1 [Honokiol] (10 µM)
inactive: [1] 0 | [2] 0 | [3] 0 | [4] 0 | [5] 0 | [6] 0 | [7] 0 | [8] 0 | [9] 0 | [10] 0

Cn1cc2cc(C(F)(F)c3nnc4ccc(-c5cnn(C6CC6)c5)nn34)c(F)cc2n1 [Bozitinib] (10 µM)
inactive: [1] 0 | [2] 0 | [3] 0 | [4] 0 | [5] 0 | [6] 0 | [7] 0 | [8] 0 | [9] 0 | [10] 0

Cc1cnc(-c2ccc(-c3ccc(NC(=O)Nc4cccc(C(F)(F)F)c4)cc3F)c3c2C(=O)NC3)[nH]1 (10 µM)
inactive: [1] 0 | [2] 0 | [3] 0 | [4] 0 | [5] 0 | [6] 0 | [7] 0 | [8] 0 | [9] 0 | [10] 0

NC1=NCCN1CC(=O)O [Cyclocreatine] (10 µM)
inactive: [1] 0 | [2] 0 | [3] 0 | [4] 0 | [5] 0 | [6] 0 | [7] 0 | [8] 0 | [9] 0 | [10] 0

Cc1cccc(-c2[nH]c(C(C)(C)C)nc2-c2ccc3nccnc3c2)n1 (10 µM)
inactive: [1] 0 | [2] 0 | [3] 0 | [4] 0 | [5] 0 | [6] 0 | [7] 0 | [8] 0 | [9] 0 | [10] 0

CC1(C)Cc2c(sc(NC(=S)NC(=O)c3ccccc3)c2C(=O)O)CO1 (10 µM)
inactive: [1] 0 | [2] 0 | [3] 0 | [4] 0 | [5] 0 | [6] 0 | [7] 0 | [8] 0 | [9] 0 | [10] 0

O=C(N[C@@H](C1CC1)C(F)(F)F)c1cc(-c2cnn3cc(-c4ccc(F)cc4)cnc23)cs1 (10 µM)
inactive: [1] 0 | [2] 0 | [3] 0 | [4] 0 | [5] 0 | [6] 0 | [7] 0 | [8] 0 | [9] 0 | [10] 0

Cc1nc(-c2cnn(C)c2)nc2c1[nH]c1ncc(-c3ccc(N4CCN(C)CC4)cc3)cc12 [GNE 220 (hydrochloride)] (10 µM)
inactive: [1] 0 | [2] 0 | [3] 0 | [4] 0 | [5] 0 | [6] 0 | [7] 0 | [8] 0 | [9] 0 | [10] 0

CC(C)c1cc(/C=C(\C#N)C(=O)NCCCc2ccccc2)cc(C(C)C)c1O (10 µM)
inactive: [1] 0 | [2] 0 | [3] 0 | [4] 0 | [5] 0 | [6] 0 | [7] 0 | [8] 0 | [9] 0 | [10] 0

C=CC(=O)Nc1cccc(CNc2nc(Nc3ccc(N4CCN(C)CC4)cc3OC)ncc2Cl)c1 (10 µM)
inactive: [1] 0 | [2] 0 | [3] 0 | [4] 0 | [5] 0 | [6] 0 | [7] 0 | [8] 0 | [9] 0 | [10] 0

O=[N+]([O-])c1ccc(Nc2nc(N3CCOCC3)nc(N3CCOCC3)n2)cc1 (10 µM)
inactive: [1] 0 | [2] 0 | [3] 0 | [4] 0 | [5] 0 | [6] 0 | [7] 0 | [8] 0 | [9] 0 | [10] 0

CCc1ccc(OCC(=O)Nc2ccc(F)c([N+](=O)[O-])c2)cc1 (10 µM)
inactive: [1] 0 | [2] 0 | [3] 0 | [4] 0 | [5] 0 | [6] 0 | [7] 0 | [8] 0 | [9] 0 | [10] 0

O=C(NCc1cccc(O)c1)Nc1nc(-c2ccncc2)cs1 (10 µM)
inactive: [1] 0 | [2] 0 | [3] 0 | [4] 0 | [5] 0 | [6] 0 | [7] 0 | [8] 0 | [9] 0 | [10] 0

Cc1ccc(Oc2nc3cc(-c4ccc(-c5ccccc5)cc4)c(Cl)cc3[nH]2)cc1C(=O)O (10 µM)
inactive: [1] 0 | [2] 0 | [3] 0 | [4] 0 | [5] 0 | [6] 0 | [7] 0 | [8] 0 | [9] 0 | [10] 0

O=C(Nc1cccc(Nc2ncc(Br)c(NCCc3cnc[nH]3)n2)c1)N1CCCC1 (10 µM)
inactive: [1] 0 | [2] 0 | [3] 0 | [4] 0 | [5] 0 | [6] 0 | [7] 0 | [8] 0 | [9] 0 | [10] 0

N[C@@H](CCC(=O)O)C(=O)N[C@@H](Cc1c[nH]c2ccccc12)C(=O)O [Oglufanide] (10 µM)
inactive: [1] 0 | [2] 0 | [3] 0 | [4] 0 | [5] 0 | [6] 0 | [7] 0 | [8] 0 | [9] 0 | [10] 0

O=c1cc(N2CCOCC2)nc2c3ccccc3ccn12 [Compound 401] (10 µM)
inactive: [1] 0 | [2] 0 | [3] 0 | [4] 0 | [5] 0 | [6] 0 | [7] 0 | [8] 0 | [9] 0 | [10] 0

CC(C)CCNC(=O)c1ccc2c(c1)nc(Nc1n[nH]c3ccc(-c4ccccc4OC(F)(F)F)cc13)n2C1CCC(O)CC1 (stereo not drawn) [IRAK inhibitor 4 (trans)] (10 µM)
inactive: [1] 0 | [2] 0 | [3] 0 | [4] 0 | [5] 0 | [6] 0 | [7] 0 | [8] 0 | [9] 0 | [10] 0

N#CC(c1ccnc(OCc2ccc(CN3CCOCC3)cc2)n1)c1nc2ccccc2s1 (stereo not given) [Bentamapimod] (2.5 µM)
inactive: [1] 0 | [2] 0 | [3] 0 | [4] 0 | [5] 0 | [6] 0 | [7] 0 | [8] 0 | [9] 0 | [10] 0

c1ccc(-c2nc3c(c(-n4ccc5cnccc54)n2)CCC3)nc1 (10 µM)
inactive: [1] 0 | [2] 0 | [3] 0 | [4] 0 | [5] 0 | [6] 0 | [7] 0 | [8] 0 | [9] 0 | [10] 0

CC(C)=CCc1c(-c2ccc(O)cc2O)oc2c3c(cc(O)c2c1=O)OC(C)(C)C=C3 [Morusin] (2.5 µM)
inactive: [1] 0 | [2] 0 | [3] 0 | [4] 0 | [5] 0 | [6] 0 | [7] 0 | [8] 0 | [9] 0 | [10] 0

COCCNc1cc(NC(=O)N2CCCc3cc(CN4CCN(C)CC4=O)c(C=O)nc32)ncc1C#N [Roblitinib] (10 µM)
inactive: [1] 0 | [2] 0 | [3] 0 | [4] 0 | [5] 0 | [6] 0 | [7] 0 | [8] 0 | [9] 0 | [10] 0

CN1CCC(c2ccccc2CC(C)(C)Nc2nc(N3CCOCC3)nc(-n3c(C(F)F)nc4ccccc43)n2)CC1 [Zandelisib] (10 µM)
inactive: [1] 0 | [2] 0 | [3] 0 | [4] 0 | [5] 0 | [6] 0 | [7] 0 | [8] 0 | [9] 0 | [10] 0

CNc1nc(Nc2ccc(C(=O)N3CCOCC3)cc2OC)ncc1Cl (2.5 µM)
inactive: [1] 0 | [2] 0 | [3] 0 | [4] 0 | [5] 0 | [6] 0 | [7] 0 | [8] 0 | [9] 0 | [10] 0

O=[N+]([O-])c1ccc2c(c1)S(=O)(=O)C=C2 [Stattic] (2.5 µM)
inactive: [1] 0 | [2] 0 | [3] 0 | [4] 0 | [5] 0 | [6] 0 | [7] 0 | [8] 0 | [9] 0 | [10] 0

Cc1ccc(NC(=O)c2ccc(CN(CCN(C)C)C(=O)c3cccnc3)cc2)cc1Nc1nccc(-c2cccnc2)n1 [PDGFRα kinase inhibitor 1] (10 µM)
inactive: [1] 0 | [2] 0 | [3] 0 | [4] 0 | [5] 0 | [6] 0 | [7] 0 | [8] 0 | [9] 0 | [10] 0

O=c1cc(-c2cccc3c2Sc2ccccc2S3)oc(N2CCOCC2)c1 (10 µM)
inactive: [1] 0 | [2] 0 | [3] 0 | [4] 0 | [5] 0 | [6] 0 | [7] 0 | [8] 0 | [9] 0 | [10] 0

C=CC(=O)N1CCC[C@H](n2c(=O)n(-c3ccc(Oc4ccccc4)cc3)c3c(N)ncnc32)C1 [ONO-4059 (analog)] (10 µM)
inactive: [1] 0 | [2] 0 | [3] 0 | [4] 0 | [5] 0 | [6] 0 | [7] 0 | [8] 0 | [9] 0 | [10] 0

Of the compounds above, 7 contain fluorine:
CNc1cc(Nc2cccn(-c3ccccn3)c2=O)nn2c(C(=O)N[C@@H]3C[C@@H]3F)cnc12 (2.5 µM)
inactive: [1] 0 | [2] 0 | [3] 0 | [4] 0 | [5] 0 | [6] 0 | [7] 0 | [8] 0 | [9] 0 | [10] 0

Cn1cc2cc(C(F)(F)c3nnc4ccc(-c5cnn(C6CC6)c5)nn34)c(F)cc2n1 [Bozitinib] (10 µM)
inactive: [1] 0 | [2] 0 | [3] 0 | [4] 0 | [5] 0 | [6] 0 | [7] 0 | [8] 0 | [9] 0 | [10] 0

Cc1cnc(-c2ccc(-c3ccc(NC(=O)Nc4cccc(C(F)(F)F)c4)cc3F)c3c2C(=O)NC3)[nH]1 (10 µM)
inactive: [1] 0 | [2] 0 | [3] 0 | [4] 0 | [5] 0 | [6] 0 | [7] 0 | [8] 0 | [9] 0 | [10] 0

O=C(N[C@@H](C1CC1)C(F)(F)F)c1cc(-c2cnn3cc(-c4ccc(F)cc4)cnc23)cs1 (10 µM)
inactive: [1] 0 | [2] 0 | [3] 0 | [4] 0 | [5] 0 | [6] 0 | [7] 0 | [8] 0 | [9] 0 | [10] 0

CCc1ccc(OCC(=O)Nc2ccc(F)c([N+](=O)[O-])c2)cc1 (10 µM)
inactive: [1] 0 | [2] 0 | [3] 0 | [4] 0 | [5] 0 | [6] 0 | [7] 0 | [8] 0 | [9] 0 | [10] 0

CC(C)CCNC(=O)c1ccc2c(c1)nc(Nc1n[nH]c3ccc(-c4ccccc4OC(F)(F)F)cc13)n2C1CCC(O)CC1 (stereo not drawn) [IRAK inhibitor 4 (trans)] (10 µM)
inactive: [1] 0 | [2] 0 | [3] 0 | [4] 0 | [5] 0 | [6] 0 | [7] 0 | [8] 0 | [9] 0 | [10] 0

CN1CCC(c2ccccc2CC(C)(C)Nc2nc(N3CCOCC3)nc(-n3c(C(F)F)nc4ccccc43)n2)CC1 [Zandelisib] (10 µM)
inactive: [1] 0 | [2] 0 | [3] 0 | [4] 0 | [5] 0 | [6] 0 | [7] 0 | [8] 0 | [9] 0 | [10] 0

(listing goes on)

O=C1O[C@H]([C@@H](O)CO)C(O)=C1OP(=O)(O)O [2-Phospho-L-ascorbic acid (trisodium)] (10 µM)
inactive: [1] 0 | [2] 0 | [3] 0 | [4] 0 | [5] 0 | [6] 0 | [7] 0 | [8] 0 | [9] 0 | [10] 0

COc1ccccc1C(=O)/C=C/c1ccccc1C(=O)O (10 µM)
inactive: [1] 0 | [2] 0 | [3] 0 | [4] 0 | [5] 0 | [6] 0 | [7] 0 | [8] 0 | [9] 0 | [10] 0

CC(C)c1cccc(C(C)C)c1N1C(=O)c2ccc(N)cc2C1=O (2.5 µM)
inactive: [1] 0 | [2] 0 | [3] 0 | [4] 0 | [5] 0 | [6] 0 | [7] 0 | [8] 0 | [9] 0 | [10] 0
